Results are given in words; binding and its absence hold for the method and conditions named. For some assays here: In cells and extracts the contact can be indirect. Some results given as binding are weak or reduced against the parent protein; the word gives no strength.
B1: HECTD3 (enzyme, UniProt Q5T447 1-861)
chain: MAGPGPGAVLESPRQLLGRVRFLAEAARSLRAGRPLPAALAFVPREVLYKLYKDPAGPSRVLLPVWEAEGLGLRVGAAGPAPGTGSGPLRAARDSIELRRGACVRTTGEELCNGHGLWVKLTKEQLAEHLGDCGLQEGWLLVCRPAEGGARLVPIDTPNHLQRQQQLFGVDYRPVLRWEQVVDLTYSHRLGSRPQPAEAYAEAVQRLLYVPPTWTYECDEDLIHFLYDHLGKEDENLGSVKQYVESIDVSSYTEEFNVSCLTDSNADTYWESDGSQCQHWVRLTMKKGTIVKKLLLTVDTTDDNFMPKRVVVYGGEGDNLKKLSDVSIDETLIGDVCVLEDMTVHLPIIEIRIVECRDDGIDVRLRGVKIKSSRQRELGLNADLFQPTSLVRYPRLEGTDPEVLYRRAVLLQRFIKILDSVLHHLVPAWDHTLGTFSEIKQVKQFLLLSRQRPGLVAQCLRDSESSKPSFMPRLYINRRLAMEHRACPSRDPACKNAVFTQVYEGLKPSDKYEKPLDYRWPMRYDQWWECKFIAEGIIDQGGGFRDSLADMSEELCPSSADTPVPLPFFVRTANQGNGTGEARDMYVPNPSCRDFAKYEWIGQLMGAALRGKEFLVLALPGFVWKQLSGEEVSWSKDFPAVDSVLVKLLEVMEGMDKETFEFKFGKELTFTTVLSDQQVVELIPGGAGIVVGYGDRSRFIQLVQKARLEESKEQVAAMQAGLLKVVPQAVLDLLTWQELEKKVCGDPEVTVDALRKLTRFEDFEPSDSRVQYFWEALNNFTNEDRSRFLRFVTGRSRLPARIYIYPDKLGYETTDALPESSTCSSTLFLPHYASAKVCEEKLRYAAYNCVAIDTDMSPWEE

Amino acid sequences for entries named in this document (tags omitted).
UniProt Q9UHP3: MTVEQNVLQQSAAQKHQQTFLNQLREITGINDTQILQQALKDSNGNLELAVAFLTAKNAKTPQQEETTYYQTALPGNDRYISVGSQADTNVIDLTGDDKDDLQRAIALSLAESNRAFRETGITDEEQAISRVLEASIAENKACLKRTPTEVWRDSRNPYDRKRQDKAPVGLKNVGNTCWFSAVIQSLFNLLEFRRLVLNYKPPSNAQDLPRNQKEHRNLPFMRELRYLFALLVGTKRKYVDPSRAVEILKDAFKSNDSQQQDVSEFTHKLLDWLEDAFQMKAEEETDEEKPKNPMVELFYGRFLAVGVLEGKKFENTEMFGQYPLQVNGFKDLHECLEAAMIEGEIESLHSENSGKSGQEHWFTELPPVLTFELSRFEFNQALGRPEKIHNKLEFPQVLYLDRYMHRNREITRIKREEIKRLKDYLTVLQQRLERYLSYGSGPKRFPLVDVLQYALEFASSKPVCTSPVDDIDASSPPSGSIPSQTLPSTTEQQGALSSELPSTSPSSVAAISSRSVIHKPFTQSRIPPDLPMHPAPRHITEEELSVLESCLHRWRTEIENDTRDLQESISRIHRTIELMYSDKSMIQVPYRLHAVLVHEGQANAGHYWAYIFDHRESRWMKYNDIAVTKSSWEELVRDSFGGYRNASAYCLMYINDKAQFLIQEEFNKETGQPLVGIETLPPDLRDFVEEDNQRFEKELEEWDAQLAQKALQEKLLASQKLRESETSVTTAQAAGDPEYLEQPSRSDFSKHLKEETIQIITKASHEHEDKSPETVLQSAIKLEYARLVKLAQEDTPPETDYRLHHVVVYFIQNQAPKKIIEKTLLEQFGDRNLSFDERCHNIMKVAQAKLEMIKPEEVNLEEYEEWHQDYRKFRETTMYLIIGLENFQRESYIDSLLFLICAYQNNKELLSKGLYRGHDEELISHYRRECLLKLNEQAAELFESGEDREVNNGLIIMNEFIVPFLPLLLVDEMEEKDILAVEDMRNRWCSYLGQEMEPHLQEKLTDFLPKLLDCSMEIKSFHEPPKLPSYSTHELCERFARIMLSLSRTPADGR

Legend:
[1] = target: HA-USP25 (USP25^WT in PLVX-CMV-HA) (UniProt Q9UHP3); assay: co-IP; cell lysates on HA resin (HA-USP25), immunoprecipitates blotted for TRIM25, HECTD3, NEDD4L and WWP2
USP25 (as used for SPR) = USP25 (as used for SPR) (UniProt Q9UHP3); assay: SPR; kinetic interaction of the SH peptides and USP25; who was immobilised and the conditions are not stated; both purified

| Binder | binding [1] | binding (USP25 (as used for SPR)) |
| --- | --- | --- |
| B1 | binds | – |
| MSVADPWKKIQLLYS [SH-1 peptide] | – | binds |
| EKQHKNLENYKVPESI [SH-2 peptide] | – | binds |
| FTEEEKYQKLLSENK [SH-3 peptide] | – | binds |
| KNFNTNLFQLGHKCA [SH-4 peptide] | – | binds |
